The values that follow come from the supplement of paper PMC12542422.

Where a name gives a salt, the structure may show the parent alone. ± gives the standard deviation of the averaged measurements. This is one part of the list. These are raw signals, not scaled to a control.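 Across three biological replicates, HeLa cells were imaged for ribosome assembly using ENP1 staining (export block present or absent) or inducible tagged ribosomal protein reporters. Machine learning classified each cell's signal localization relative to DMSO controls. Hits exceeded the DMSO false-positive mean by five standard deviations and were then visually confirmed.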

Assay [1] concerns HeLa K (ENP1 immunofluorescence, +LMB). The experiment in a line: fraction of cells with nucleolar or nucleolar/nucleoplasmic ENP1 signal (MainHitrate); higher = more cells with nucleolar/nuclear readout signal (for ENP1 -LMB: less RNAPI inhibition; for +LMB ENP1 and RP reporters: stronger nuclear/nucleolar retention, i.e. ribosome biogenesis defect). The note with it: concentration: 1 µM; treatment time: 6 h; ENP1 +LMB; leptomycin B: 20 nM, last 1.5 h.

Assay [2] deals with HeLa K (ENP1 immunofluorescence, no LMB). The description is as above. The note with it: concentration: 1 µM; treatment time: 6 h; ENP1 -LMB; leptomycin B: none.
The subject of assay [3] is HeLa RPS2-YFP reporter. The experiment in a line: fraction of reporter-positive cells with nuclear (nucleolar or nucleolar/nucleoplasmic) RPS2-YFP (MainHitrate); higher = more cells with nucleolar/nuclear readout signal (for ENP1 -LMB: less RNAPI inhibition; for +LMB ENP1 and RP reporters: stronger nuclear/nucleolar retention, i.e. ribosome biogenesis defect). The note with it: concentration: 1 µM; treatment time: 6 h.

The subject of assay [4] is HeLa RPL29-GFP reporter. The experiment in a line: fraction of reporter-positive cells with nuclear (nucleolar or nucleolar/nucleoplasmic) RPL29-GFP (MainHitrate); higher = more cells with nucleolar/nuclear readout signal (for ENP1 -LMB: less RNAPI inhibition; for +LMB ENP1 and RP reporters: stronger nuclear/nucleolar retention, i.e. ribosome biogenesis defect). Particulars: concentration: 1 µM; treatment time: 6 h.

Take `CCN(CC)CC#CCOC(=O)C(O)(c1ccccc1)C1CCCCC1` (stereo not given) [Oxybutynin (Ditropan)]: the fraction in assay [1] is 0.117 ± 0.16; in assay [2] it was 0.9988 ± 0.0021. Also, the “fraction of reporter-positive cells with nuclear” value (shortened to “fraction … with nuclear”) is 0.113 ± 0.088 in assay [3] and 0.234 ± 0.064 in assay [4].

As for `COC(=O)Nc1nc2cc(C(=O)c3ccc(F)cc3)ccc2[nH]1` [Flubendazole (Flutelmium)], the fraction in assay [1] was determined as 0.0935 ± 0.12; in assay [2], 0.986 ± 0.024. Besides, the “fraction … with nuclear” value in assay [3] stood at 0.175 ± 0.08; in assay [4] it was 0.296 ± 0.06.

Consider `CCc1ccc(CCOc2ccc(CC3SC(=O)NC3=O)cc2)nc1` (stereo not given) [Pioglitazone hydrochloride (Actos)], for which the fraction came out at 0.156 ± 0.24 in assay [1] and 0.9956 ± 0.0076 in assay [2]. For the same compound, the entries for the “fraction … with nuclear” value in assay [3] and in assay [4] were 0.11 ± 0.056 and 0.223 ± 0.068, respectively.

On to `CC(C)NCC(O)COc1ccc(COCCOC(C)C)cc1` (stereo not given) [Bisoprolol], for which the fraction in assay [1] was found to be 0.092 ± 0.09; in assay [2], 0.9979 ± 0.0036. Further, the entries for the “fraction … with nuclear” value in assay [3] and in assay [4] were 0.124 ± 0.079 and 0.196 ± 0.046, respectively.

For the compound `COc1cc2nc(N3CCN(C(=O)C4COc5ccccc5O4)CC3)nc(N)c2cc1OC` (stereo not given) [Doxazosin mesylate], the fraction was determined as 0.109 ± 0.079 in assay [1] and 0.9982 ± 0.0031 in assay [2]. Also, the “fraction … with nuclear” value in assay [3] came to 0.124 ± 0.06; in assay [4] it was 0.244 ± 0.073.

As to `CNNCc1ccc(C(=O)NC(C)C)cc1` [Procarbazine HCl (Matulane)], the fraction in assay [1] was 0.113 ± 0.15; in assay [2] it was 0.99 ± 0.017. The entries for the “fraction … with nuclear” value in assay [3] and in assay [4] were 0.109 ± 0.096 and 0.212 ± 0.081, respectively.

Take `CC(C)OC(=O)C(C)(C)Oc1ccc(C(=O)c2ccc(Cl)cc2)cc1` [Fenofibrate (Tricor, Trilipix)]: the fraction came out at 0.0785 ± 0.094 in assay [1] and 0.9955 ± 0.0078 in assay [2]. Moreover, the “fraction … with nuclear” value came to 0.128 ± 0.081 in assay [3] and 0.254 ± 0.19 in assay [4].

For `O=C(O)c1cccnc1Nc1cccc(C(F)(F)F)c1` [Niflumic acid], the fraction in assay [1] came out at 0.0498 ± 0.063; in assay [2], 0.977 ± 0.041. Also, the “fraction … with nuclear” value was 0.117 ± 0.094 in assay [3] and 0.215 ± 0.043 in assay [4].

`Nc1nc2c(ncn2COC(CO)CO)c(=O)[nH]1` [Ganciclovir]: the results for the fraction in assay [1] and in assay [2] were 0.104 ± 0.13 and 0.992 ± 0.013, respectively. For the same compound, the “fraction … with nuclear” value in assay [3] came out at 0.128 ± 0.074; in assay [4], 0.216 ± 0.047.

For `Cc1nc2n(c(=O)c1CCN1CCC(c3noc4cc(F)ccc34)CC1)CCCC2O` (stereo not given) [Paliperidone (Invega)], the fraction in assay [1] was 0.0932 ± 0.1; in assay [2] it was 0.9979 ± 0.0036. Besides, the “fraction … with nuclear” value in assay [3] was determined as 0.11 ± 0.068; in assay [4], 0.204 ± 0.078.

Turning to `CN1CCN2c3ncccc3Cc3ccccc3C2C1` (stereo not given) [Mirtazapine (Remeron, Avanza)], the fraction is 0.1 ± 0.14 in assay [1] and 0.989 ± 0.019 in assay [2]. The entries for the “fraction … with nuclear” value in assay [3] and in assay [4] were 0.112 ± 0.065 and 0.214 ± 0.075, respectively.

With `CCOCC(O)COc1ccc(NC(=O)CC[S+](C)C)cc1` (stereo not given) [Suplatast tosylate], the fraction in assay [1] was found to be 0.0999 ± 0.14; in assay [2] it was 0.991 ± 0.016. In addition, the “fraction … with nuclear” value in assay [3] came to 0.108 ± 0.059; in assay [4], 0.226 ± 0.093.

On to `CCn1cc(C(=O)O)c(=O)c2cnc(N3CCCC3)nc21` [Piromidic Acid], for which the fraction in assay [1] was 0.0639 ± 0.072; in assay [2] it was 0.9962 ± 0.0066. The “fraction … with nuclear” value in assay [3] was 0.067 ± 0.049; in assay [4], 0.299 ± 0.24.

Take `CCC[C@H](N[C@@H](C)C(=O)N1[C@H](C(=O)O)C[C@@H]2CCCC[C@@H]21)C(=O)OCC` [Perindopril Erbumine (Aceon)]: the fraction in assay [1] was found to be 0.0606 ± 0.049; in assay [2], 0.997 ± 0.0053. Besides, the “fraction … with nuclear” value in assay [3] was determined as 0.107 ± 0.071; in assay [4], 0.213 ± 0.067.

For `COc1cc([C@@H]2c3cc4c(cc3[C@@H](O[C@@H]3O[C@@H]5CO[C@@H](C)O[C@H]5[C@H](O)[C@H]3O)[C@H]3COC(=O)[C@H]23)OCO4)cc(OC)c1O` [Etoposide (VP-16)], the figures for the fraction in assay [1] and in assay [2] were 0.142 ± 0.18 and 0.9986 ± 0.0025, respectively. Moreover, the “fraction … with nuclear” value in assay [3] was 0.0824 ± 0.042; in assay [4], 0.173 ± 0.056.

For the compound `CO[C@H]1/C=C/O[C@@]2(C)Oc3c(C)c(O)c4c(O)c(c(/C=N/N5CCN(C)CC5)c(O)c4c3C2=O)NC(=O)/C(C)=C\C=C\[C@H](C)[C@H](O)[C@@H](C)[C@@H](O)[C@@H](C)[C@H](OC(C)=O)[C@@H]1C` [Rifampin (Rifadin, Rimactane)], the fraction in assay [1] was 0.0863 ± 0.091; in assay [2], 0.9989 ± 0.0019. The figures for the “fraction … with nuclear” value in assay [3] and in assay [4] were 0.115 ± 0.075 and 0.221 ± 0.089, respectively.

As to `COc1ccc(C2CNC(=O)C2)cc1OC1CCCC1` (stereo not given) [Rolipram], the fraction in assay [1] worked out at 0.0669 ± 0.064; in assay [2] it was 0.9981 ± 0.0033. Moreover, the “fraction … with nuclear” value in assay [3] came out at 0.113 ± 0.041; in assay [4], 0.201 ± 0.058.

For the compound `Nc1ccc(S(=O)(=O)Nc2nccs2)cc1` [Sulfathiazole], the fraction was 0.0505 ± 0.05 in assay [1] and 0.987 ± 0.022 in assay [2]. Moreover, the “fraction … with nuclear” value in assay [3] stood at 0.0762 ± 0.028; in assay [4] it was 0.219 ± 0.033.

For `CC(C)(Oc1ccc(Cl)cc1)C(=O)O` [Clofibric acid], the fraction in assay [1] worked out at 0.128 ± 0.19; in assay [2] it was 0.992 ± 0.014. The “fraction … with nuclear” value in assay [3] was 0.132 ± 0.1; in assay [4] it was 0.234 ± 0.052.

In the case of `NC(=O)c1ncn([C@@H]2O[C@H](CO)[C@@H](O)[C@H]2O)n1` [Ribavirin (Copegus)], the fraction was 0.108 ± 0.14 in assay [1] and 0.991 ± 0.015 in assay [2]. The “fraction … with nuclear” value in assay [3] was 0.116 ± 0.092; in assay [4] it was 0.238 ± 0.062.

For the compound `O=C(O)CCCN1CCC(O[C@@H](c2ccc(Cl)cc2)c2ccccn2)CC1` [Bepotastine Besilate], the fraction in assay [1] was found to be 0.109 ± 0.16; in assay [2], 0.985 ± 0.025. The “fraction … with nuclear” value in assay [3] worked out at 0.122 ± 0.11; in assay [4] it was 0.201 ± 0.055.

As to `OCC(O)CN1CCN(c2ccccc2)CC1` (stereo not given) [Dropropizine], the fraction in assay [1] turned out to be 0.0744 ± 0.1; in assay [2], 0.989 ± 0.019. Besides, the entries for the “fraction … with nuclear” value in assay [3] and in assay [4] were 0.112 ± 0.077 and 0.232 ± 0.079, respectively.

`COc1c(C)c2c(c(O)c1C/C=C(\C)CCC(=O)OCCN1CCOCC1)C(=O)OC2` [Mycophenolate mofetil (CellCept)]: the results for the fraction in assay [1] and in assay [2] were 0.0285 ± 0.039 and 0.729 ± 0.47, respectively. The entries for the “fraction … with nuclear” value in assay [3] and in assay [4] were 0.118 ± 0.079 and 0.358 ± 0.13, respectively.

As for `CSc1nc2cc(Cl)c(Oc3cccc(Cl)c3Cl)cc2[nH]1` [Triclabendazole], the fraction was 0.0926 ± 0.13 in assay [1] and 0.982 ± 0.03 in assay [2]. Also, the “fraction … with nuclear” value came out at 0.121 ± 0.085 in assay [3] and 0.207 ± 0.081 in assay [4].

For the compound `O=C1c2ccccc2C(=O)C1c1ccccc1` [Phenindione (Rectadione)], the values for the fraction in assay [1] and in assay [2] were 0.0839 ± 0.12 and 0.9951 ± 0.0085, respectively. Further, the entries for the “fraction … with nuclear” value in assay [3] and in assay [4] were 0.112 ± 0.086 and 0.233 ± 0.067, respectively.
